Laboratory results as given in PMC11589570, “Critical assessment of LC3/GABARAP ligands used for degrader development and ligandability of LC3/GABARAP binding pockets” (Nature Communications, 2024).
“And” between values parts separate entries of the source, which are not always exact repeats. Equal entries are not always repeated. This continues a long series; more values of the same kind are listed elsewhere.

Tested on: RPE1 cells
Assay: Cell growth assay (IncuCyte confluence over 72 h)
Format: cell-based
How it was run: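 Phase confluence (% area covered by cells) imaged every 2 h for 72 h after compound addition; cells in DMEM/10% FBS, seeded 24 h before treatment. Controls were 0.1% DMSO, 250 nM Torin1 and 200 ng/mL Bafilomycin (final). Each point averages three wells.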

Q: Which RPE1 cell growth (3 uM, 18 h, listed as KT1) does the source give for `Cc1ccc(C)c(S(=O)(=O)Nc2cc(SCC(=O)O)c(O)c3ccccc23)c1` [compound 8] here?
A: 35 and 48 and 34

Q: What about the RPE1 cell growth (3 uM, 20 h, listed as KT1) of the same molecule?
A: 38 and 52 and 36

Q: What about the RPE1 cell growth (3 uM, 22 h, listed as KT1) of the same molecule?
A: 39 and 54 and 37

Q: What about the RPE1 cell growth (3 uM, 24 h, listed as KT1) of the same molecule?
A: 42 and 58 and 39

Q: And the RPE1 cell growth (3 uM, 26 h, listed as KT1)?
A: 46 and 63 and 43

Q: What about the RPE1 cell growth (3 uM, 28 h, listed as KT1) of the same molecule?
A: 47 and 68

Q: And the RPE1 cell growth (3 uM, 30 h, listed as KT1)?
A: 50 and 73

Q: And the RPE1 cell growth (3 uM, 32 h, listed as KT1)?
A: 55 and 77 and 56

Q: And the RPE1 cell growth (3 uM, 34 h, listed as KT1)?
A: 60 and 81 and 59

Q: And the RPE1 cell growth (3 uM, 36 h, listed as KT1)?
A: 64 and 84 and 62

Q: What about the RPE1 cell growth (3 uM, 38 h, listed as KT1) of the same molecule?
A: 67 and 88

Q: And the RPE1 cell growth (3 uM, 40 h, listed as KT1)?
A: 72 and 91 and 71

Q: And the RPE1 cell growth (3 uM, 42 h, listed as KT1)?
A: 76 and 94 and 75

Q: What about the RPE1 cell growth (3 uM, 44 h, listed as KT1) of the same molecule?
A: 80 and 96 and 79

Q: What about the RPE1 cell growth (3 uM, 46 h, listed as KT1) of the same molecule?
A: 83 and 98

Q: What about the RPE1 cell growth (3 uM, 48 h, listed as KT1) of the same molecule?
A: 87 and 99

Q: And the RPE1 cell growth (3 uM, 50 h, listed as KT1)?
A: 91 and 99 and 90

Q: And the RPE1 cell growth (3 uM, 52 h, listed as KT1)?
A: 94 and 100

Q: What about the RPE1 cell growth (3 uM, 54 h, listed as KT1) of the same molecule?
A: 96 and 100 and 97

Q: What about the RPE1 cell growth (3 uM, 56 h, listed as KT1) of the same molecule?
A: 97 and 100 and 98

Q: What about the RPE1 cell growth (3 uM, 58 h, listed as KT1) of the same molecule?
A: 98 and 100 and 99

Q: What about the RPE1 cell growth (3 uM, 60 h, listed as KT1) of the same molecule?
A: 99 and 100

Q: And the RPE1 cell growth (3 uM, 62 h, listed as KT1)?
A: 99 and 100

Q: And the RPE1 cell growth (3 uM, 64 h)?
A: 100

Q: What about the RPE1 cell growth (3 uM, 66 h) of the same molecule?
A: 100

Q: What about the RPE1 cell growth (3 uM, 68 h) of the same molecule?
A: 100

Q: And the RPE1 cell growth (3 uM, 70 h)?
A: 100

Q: And the RPE1 cell growth (3 uM, 72 h)?
A: 100

Q: And the RPE1 cell growth (5 uM, 16 h, listed as KT1)?
A: 30 and 46

Q: What about the RPE1 cell growth (5 uM, 18 h, listed as KT1) of the same molecule?
A: 31 and 50 and 32

Q: What about the RPE1 cell growth (5 uM, 20 h, listed as KT1) of the same molecule?
A: 33 and 54 and 35

Q: What about the RPE1 cell growth (5 uM, 22 h, listed as KT1) of the same molecule?
A: 35 and 55 and 36

Q: And the RPE1 cell growth (5 uM, 24 h, listed as KT1)?
A: 36 and 62 and 39

Q: And the RPE1 cell growth (5 uM, 26 h, listed as KT1)?
A: 39 and 63 and 41

Q: What about the RPE1 cell growth (5 uM, 28 h, listed as KT1) of the same molecule?
A: 43 and 68 and 44

Q: What about the RPE1 cell growth (5 uM, 30 h, listed as KT1) of the same molecule?
A: 43 and 73 and 49

Q: And the RPE1 cell growth (5 uM, 32 h, listed as KT1)?
A: 48 and 77 and 51

Q: What about the RPE1 cell growth (5 uM, 34 h, listed as KT1) of the same molecule?
A: 52 and 80 and 55

Q: And the RPE1 cell growth (5 uM, 36 h, listed as KT1)?
A: 56 and 85 and 59

Q: And the RPE1 cell growth (5 uM, 38 h, listed as KT1)?
A: 57 and 89 and 62

Q: And the RPE1 cell growth (5 uM, 40 h, listed as KT1)?
A: 62 and 90 and 66

Q: What about the RPE1 cell growth (5 uM, 42 h, listed as KT1) of the same molecule?
A: 65 and 93 and 68

Q: What about the RPE1 cell growth (5 uM, 44 h, listed as KT1) of the same molecule?
A: 69 and 96 and 74

Q: And the RPE1 cell growth (5 uM, 46 h, listed as KT1)?
A: 72 and 98 and 79

Q: What about the RPE1 cell growth (5 uM, 48 h, listed as KT1) of the same molecule?
A: 77 and 99 and 81

Q: And the RPE1 cell growth (5 uM, 50 h, listed as KT1)?
A: 80 and 99 and 86

Q: What about the RPE1 cell growth (5 uM, 52 h, listed as KT1) of the same molecule?
A: 84 and 100 and 89

Q: What about the RPE1 cell growth (5 uM, 54 h, listed as KT1) of the same molecule?
A: 88 and 100 and 93

Q: What about the RPE1 cell growth (5 uM, 56 h, listed as KT1) of the same molecule?
A: 90 and 100 and 95

Q: What about the RPE1 cell growth (5 uM, 58 h, listed as KT1) of the same molecule?
A: 92 and 100 and 97

Q: What about the RPE1 cell growth (5 uM, 60 h, listed as KT1) of the same molecule?
A: 95 and 100 and 98

Q: What about the RPE1 cell growth (5 uM, 62 h, listed as KT1) of the same molecule?
A: 96 and 100 and 99

Q: And the RPE1 cell growth (5 uM, 64 h, listed as KT1)?
A: 97 and 100 and 99

Q: What about the RPE1 cell growth (5 uM, 66 h, listed as KT1) of the same molecule?
A: 98 and 100

Q: What about the RPE1 cell growth (5 uM, 68 h, listed as KT1) of the same molecule?
A: 99 and 100

Q: And the RPE1 cell growth (5 uM, 70 h, listed as KT1)?
A: 99 and 100

Q: What about the RPE1 cell growth (5 uM, 72 h) of the same molecule?
A: 100

Q: And the RPE1 cell growth (10 uM, 14 h, listed as KT1)?
A: 29 and 35 and 28

Q: What about the RPE1 cell growth (10 uM, 16 h, listed as KT1) of the same molecule?
A: 31 and 34 and 30

Q: What about the RPE1 cell growth (10 uM, 18 h, listed as KT1) of the same molecule?
A: 32 and 39

Q: What about the RPE1 cell growth (10 uM, 20 h, listed as KT1) of the same molecule?
A: 34 and 42 and 33

Q: And the RPE1 cell growth (10 uM, 22 h, listed as KT1)?
A: 36 and 42 and 34

Q: What about the RPE1 cell growth (10 uM, 24 h, listed as KT1) of the same molecule?
A: 37 and 46 and 39

Q: What about the RPE1 cell growth (10 uM, 26 h, listed as KT1) of the same molecule?
A: 40 and 47

Q: And the RPE1 cell growth (10 uM, 28 h, listed as KT1)?
A: 43 and 51 and 42

Q: What about the RPE1 cell growth (10 uM, 30 h, listed as KT1) of the same molecule?
A: 45 and 55

Q: What about the RPE1 cell growth (10 uM, 32 h, listed as KT1) of the same molecule?
A: 48 and 61 and 49

Q: And the RPE1 cell growth (10 uM, 34 h, listed as KT1)?
A: 51 and 65 and 53

Q: What about the RPE1 cell growth (10 uM, 36 h, listed as KT1) of the same molecule?
A: 54 and 68 and 56

Q: And the RPE1 cell growth (10 uM, 38 h, listed as KT1)?
A: 57 and 74 and 60

Q: What about the RPE1 cell growth (10 uM, 40 h, listed as KT1) of the same molecule?
A: 60 and 77 and 64

Q: What about the RPE1 cell growth (10 uM, 42 h, listed as KT1) of the same molecule?
A: 64 and 81 and 67

Q: And the RPE1 cell growth (10 uM, 44 h, listed as KT1)?
A: 65 and 87 and 70

Q: And the RPE1 cell growth (10 uM, 46 h, listed as KT1)?
A: 69 and 89 and 75

Q: What about the RPE1 cell growth (10 uM, 48 h, listed as KT1) of the same molecule?
A: 73 and 92 and 78

Q: And the RPE1 cell growth (10 uM, 50 h, listed as KT1)?
A: 77 and 94 and 82

Q: And the RPE1 cell growth (10 uM, 52 h, listed as KT1)?
A: 80 and 96 and 85

Q: What about the RPE1 cell growth (10 uM, 54 h, listed as KT1) of the same molecule?
A: 83 and 97 and 89

Q: And the RPE1 cell growth (10 uM, 56 h, listed as KT1)?
A: 86 and 98 and 92

Q: What about the RPE1 cell growth (10 uM, 58 h, listed as KT1) of the same molecule?
A: 89 and 99 and 94

Q: And the RPE1 cell growth (10 uM, 60 h, listed as KT1)?
A: 91 and 100 and 96

Q: And the RPE1 cell growth (10 uM, 62 h, listed as KT1)?
A: 93 and 100 and 97

Q: And the RPE1 cell growth (10 uM, 64 h, listed as KT1)?
A: 95 and 100 and 98

Q: And the RPE1 cell growth (10 uM, 66 h, listed as KT1)?
A: 97 and 100 and 99

Q: And the RPE1 cell growth (10 uM, 68 h, listed as KT1)?
A: 98 and 100

Q: What about the RPE1 cell growth (10 uM, 70 h, listed as KT1) of the same molecule?
A: 99 and 100

Q: What about the RPE1 cell growth (10 uM, 72 h, listed as KT1) of the same molecule?
A: 99 and 100
